Assay results from PubChem BioAssay AID540256 (National Center for Advancing Translational Sciences (NCATS), 2011).
Where “and” joins values, the source holds several entries; their conditions need not be identical. Equal values may be shown once. The campaign covered roughly 300,000 compounds. About 3,700 (1.2%) were called active. Inconclusive results, whose numbers are uncertain, are shown with a selection of clear calls. Calls come from the whole dose curve; tested in HEK293 cells. Where the call is inconclusive, the potency comes from a doubtful curve fit.

Test: qHTS for Inhibitors of binding or entry into cells for Lassa Virus; note: nearly all actives have a fitted effect of over 50% in size
Conditions: Lassa virus pseudotype entry inhibition, cell reporter; series mostly up to 37.9 µM
Potency is the fitted concentration of half-maximal effect.

Row | Structure (SMILES) | Potency
1 | O=S(=O)(c1ccccc1)N1CCN=C1SCc1cccc(Cl)c1 | inconclusive: 10 µM [inhibitor, partial curve]
2 | CCCCOc1ccc(S(=O)(=O)N2CCN(C)CC2)cc1 | inconclusive: 35.5 µM [inhibitor, single point]
3 | Cc1ccc(NC(=O)CSc2n[nH]c(-c3ccc(F)cc3)n2)cc1F | inactive
4 | Cc1ccc(C(=O)N[C@H](C(=O)OCC(=O)c2ccc[nH]2)C(C)C)cc1 | inconclusive: 18.4 µM [activator, partial curve, poor fit]
5 | Nc1sc2c(c1C(=O)NCCc1ccccc1)CCC2 | inconclusive: 35.5 µM [activator, single point]
6 | CCOC(=O)/C(=C\c1ccc([N+](=O)[O-])cc1)C(=O)c1cc(C(C)=O)c(Nc2ccccc2)s1 | inconclusive: 7.94 µM [inhibitor, partial curve, poor fit]
7 | CCCNC(=O)CSc1nc2ccccc2nc1Cc1ccc(Cl)cc1 | inactive
8 | CC(=O)c1sc(NC(=O)CSC(C)C(=O)Nc2cc(C)on2)nc1-c1ccccc1 (centres undefined) | inconclusive: 3.16 µM [inhibitor, partial curve, poor fit]
9 | COC(=O)c1cc2c(ccn2-c2ccc(F)cc2)n1Cc1ccc(OC(C)=O)cc1 | inconclusive: 8.2 µM [inhibitor, partial curve, poor fit]
10 | CC1(C)C(=O)NCCN1C(=O)CCC(=O)O | inconclusive: 0.82 µM [inhibitor, full curve, poor fit]
11 | Cc1cccn2c(=O)c3cc(C#N)c(=NC(=O)c4cccs4)n(CC(C)C)c3nc12 | inactive
12 | CCN(CC(=O)NCc1ccc(Cl)cc1)C(=O)CCc1ccccc1O | inconclusive: 17.8 µM [inhibitor, partial curve, poor fit]
13 | OCC1(Cc2ccc(Cl)cc2)CCN(CCCc2ccccc2)CC1 | inconclusive: 8.91 µM [inhibitor, partial curve]
14 | COc1c(C)cccc1C(=O)Nc1ccc(N2CCOCC2)c(Cl)c1 | inconclusive: 35.5 µM [inhibitor, single point]
15 | O=C(CCc1nnc(Cc2c[nH]c3ccccc23)o1)NC(C1CC1)C1CC1 | inactive
16 | CCN(Cc1nc(-c2ccc(OC)cc2)no1)C(=O)c1ccoc1C | inactive
17 | COc1ccccc1N1CCN(C(=O)c2ccccc2Oc2ccccc2)CC1 | inconclusive: 22.4 µM [inhibitor, single point]
18 | O=C(NC1CCOC1)c1ccc(OC2CCN(CCc3ccccc3)CC2)cc1 (centres undefined) | inactive
19 | Cc1cccc(C(=O)N(Cc2ccc(C)o2)C2CCS(=O)(=O)C2)c1 (centres undefined) | inactive
20 | CCOc1ccc(S(=O)(=O)Nc2ccc(C(=O)NCC3CCCO3)cc2)cc1 (centres undefined) | inconclusive: 35.5 µM [inhibitor, single point]
21 | Cc1ccc(-n2nnnc2Sc2nc([N+](=O)[O-])nn2C)cc1 | inconclusive: 12.6 µM [inhibitor, single point]
22 | CCN1CCN(c2ncnc3c2cnn3-c2ccc(C)c(Cl)c2)CC1 | inconclusive: 3.16 µM [activator, partial curve, poor fit]
23 | COc1ccc(-c2csc(NC(=O)CSc3ccc(Br)cc3)n2)c(OC)c1 | active: 12.6 µM

Row | Structure (SMILES) | Potency
24 | COc1ccc(C)cc1S(=O)(=O)NCC(c1cccs1)S(=O)(=O)c1ccc(C)cc1 (centres undefined) | inconclusive: 14.1 µM [inhibitor, single point]
25 | COc1ccc2c(c1OC)C(=O)N(c1ccc(C)cc1)C2 | inconclusive: 35.5 µM [inhibitor, single point]
26 | Cc1ccc(-c2csc3ncnc(NCCN4CCOCC4)c23)cc1 | inconclusive: 14.1 µM [inhibitor, single point]
27 | N#CCSc1ncnc2c1cnn2CCO | inconclusive: 25.1 µM [inhibitor, single point]
28 | CC1CN(S(=O)(=O)c2cccc(C(=O)N(CCc3ccccc3)Cc3ccccc3)c2)CC(C)O1 (centres undefined) | inactive
29 | CCC(C)c1ccc(NC(=O)C/C(C)=N/NC(=O)c2cnccn2)cc1 (centres undefined) | inconclusive: 8.2 µM [activator, partial curve, poor fit]
30 | O=C(NCc1ccc(Cl)cc1)c1ccc2ccccc2n1 | inconclusive: 35.5 µM [inhibitor, single point]
31 | O=C(CC1SC(=Nc2ccccc2)N(CCCO)C1=O)Nc1ccc(Cl)cc1 (centres undefined) | inconclusive: 35.5 µM [inhibitor, single point]
32 | COc1ccccc1-n1c(=O)c2c3c(sc2n(C)c1=O)CN(C(C)=O)CC3 | inactive
33 | Cc1nc(-c2cccc(NC(=O)c3ccco3)c2)cs1 | inactive
34 | Nc1cc(S(=O)(=O)N2CCOCC2)ccc1Oc1cccc(Br)c1 | inconclusive: 0.891 µM [inhibitor, single point]
35 | Cc1csc(SCc2nnc(-c3ccc(Cl)cc3)o2)n1 | inactive
36 | COc1ccc(-c2cc(-c3cccs3)nc(OC)c2C#N)cc1OC | inconclusive: 14.1 µM [inhibitor, partial curve, poor fit]
37 | COc1cccc(CSc2nnc(-c3ccc(F)cc3)o2)c1 | inconclusive: 32.6 µM [activator, single point]
38 | Cc1ccc(Cn2cc(C(=O)c3ccc(F)cc3)c(=O)c3cc4c(cc32)OCO4)cc1 | inconclusive: 35.5 µM [inhibitor, single point]
39 | Oc1ccc2oc3c(c2c1/C=N/n1cnnc1)CCCC3 | inactive
40 | Cc1cccc(NC(=O)c2cc(S(=O)(=O)NCc3ccc4c(c3)OCO4)ccc2F)c1C | inactive
41 | CCCCOc1ccc(Cc2cnc(N)nc2N)cc1 | inconclusive: 3.16 µM [inhibitor, single point]
42 | CN(C)CCCN1c2ccccc2Sc2ccc(C(F)(F)F)cc21 | active: 10.3 µM and active: 20.6 µM
43 | OC1CCC(Nc2ncnc3sccc23)CC1 (centres undefined) | inactive
44 | CN1CCN(CCOC2Cc3ccccc3Sc3ccc(Cl)cc32)CC1 (centres undefined) | inconclusive: 20.6 µM [inhibitor, partial curve, poor fit]
45 | Cc1ccc(CCNC(=O)c2cn(C)c3ccc(S(=O)(=O)N(C)C4CCCCC4)cc3c2=O)cc1 | inactive
46 | Cc1cccc(C)c1Nc1oc(-c2ccccc2)nc1-c1cccc2ccccc12 | inconclusive: 0.003 µM [inhibitor, full curve, poor fit]

Row | Structure (SMILES) | Potency
47 | CCC1=Nc2cc(C(=O)NCC(C)c3ccccc3)ccc2Sc2ccc(C)cc21 (centres undefined) | inconclusive: 11.2 µM [inhibitor, partial curve, poor fit]
48 | Cc1cccc(C(=O)O/N=C(\N)c2ccccn2)c1 | inconclusive: 1.78 µM [inhibitor, partial curve, poor fit]
49 | O=C1CCC(C(=O)N2CCc3ccccc3C2)CN1CCCN1CCOCC1 (centres undefined) | inactive
50 | CCn1c(CNC(=O)c2ccc(OC)cc2)nnc1SCC(=O)Nc1ccccc1 | inconclusive: 10 µM [activator, partial curve, poor fit]
51 | O=C(O)CSc1nc2ccccc2[nH]1 | inactive
52 | CCOC(=O)c1ccc(OCC2c3cc(OC)c(OC)cc3CCN2C(=O)c2ccc(S(=O)(=O)N3CCCC3)cc2)cc1 (centres undefined) | inconclusive: 1.26 µM [inhibitor, partial curve, poor fit]
53 | OC(COC(c1ccc(Cl)cc1)c1ccc(Cl)cc1)CN1CCN(c2ccccn2)CC1 (centres undefined) | inconclusive: 20 µM [inhibitor, partial curve, poor fit]
54 | Cc1oc(-c2cccc(Cl)c2)nc1CN1CCC(C(=O)NCCCN2CCN(c3ccccc3F)CC2)CC1 | inactive
55 | COc1cccc(CN(C)C(=O)c2cc(COc3ccc4ncccc4c3)on2)c1 | inconclusive: 7.08 µM [inhibitor, full curve]
56 | COC(=O)C1=C2SC(C)C(=O)N2C(N)=C(C#N)C1c1ccc(OC)c(OC)c1 (centres undefined) | inconclusive: 0.501 µM [activator, single point]
57 | C=C(C)c1cccc(C(C)(C)NC(=O)NCc2cccnc2)c1 | inactive
58 | NC(=NCCc1ccccc1)NC(=O)c1cc(Cl)ccc1O | inconclusive: 35.5 µM [inhibitor, single point]
59 | C=CCn1c(=S)[nH]c2cc(-c3ccccc3)sc2c1=O | inactive
60 | CCCN(CCC)CCNC(=O)CN1C(=O)COc2ccc(S(=O)(=O)N3CCC(C)CC3)cc21 | inactive
61 | COc1ccc(CCN2C(=O)C(Oc3ccccc3C)C2c2ccc3c(c2)OCO3)cc1 (centres undefined) | inconclusive: 11.2 µM [inhibitor, partial curve, poor fit]
62 | CCCCN(CCCC)CCNC(=O)c1cn(CC)c2ccc(S(=O)(=O)N3CCc4ccccc4C3)cc2c1=O | inactive
63 | CC1=CC(C)C2(CO)COC(c3ccc(O)cc3)C1C2C (centres undefined) | inconclusive: 8.91 µM [inhibitor, partial curve, poor fit]
64 | Cc1ccc(OCC(=O)Nc2ccc(Cl)cc2)c(-n2nc3ccccc3n2)c1 | inconclusive: 29.1 µM [inhibitor, single point]
65 | CC(=O)Nc1ccc(-c2nnc(SCc3c(C)cc(C)cc3C)n2C)cc1 | inconclusive: 7.3 µM [inhibitor, partial curve]
66 | COc1ccc(C(=O)Nc2cc(C)on2)cc1[N+](=O)[O-] | inconclusive: 35.5 µM [inhibitor, single point]
67 | CC(=O)Nc1ccc(NC(=O)COC(=O)/C(=C/c2ccccc2)n2nnnc2C)cc1 | inconclusive: 35.5 µM [inhibitor, single point]
68 | Cc1ccc(OCC(=O)NCC2(N3CCOCC3)CCCCC2)cc1C | inactive
69 | COc1cccc(-c2nnc(NC(=O)c3ccc(S(=O)(=O)N(CC(C)C)CC(C)C)cc3)o2)c1 | active: 7.08 µM

Sorted by SMILES length (ascending): 4 of the compounds above.
Row | Structure (SMILES) | Potency
58 | NC(=NCCc1ccccc1)NC(=O)c1cc(Cl)ccc1O | inconclusive: 35.5 µM [inhibitor, single point]
57 | C=C(C)c1cccc(C(C)(C)NC(=O)NCc2cccnc2)c1 | inactive
55 | COc1cccc(CN(C)C(=O)c2cc(COc3ccc4ncccc4c3)on2)c1 | inconclusive: 7.08 µM [inhibitor, full curve]
62 | CCCCN(CCCC)CCNC(=O)c1cn(CC)c2ccc(S(=O)(=O)N3CCc4ccccc4C3)cc2c1=O | inactive
